For 17 compounds, AC50 and cell number change results are on record in PubChem BioAssay AID2685 (National Center for Advancing Translational Sciences (NCATS), 2010).

A short description of this test: qHTS Assay for Lipid Storage Modulators in Drosophila S3 Cells.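 On cell number change: cells counted by Cell Tracker Red CMTPX staining in the red channel.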 The conditions noted are these: BODIPY lipid droplet fluorescence, 18-24 h; for cell number change: measured here: cell count max response, cells fed with added oleic acid. An outline of the steps: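 Laser-scanning cytometry quantifies lipid droplet accumulation (500–530 nm total intensity; droplet/cell object ratio) in oleic acid-fed (400 uM added) Drosophila S3 cells treated with a concentration series. 20 uM Triacsin C defined 100% inhibition.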
(In general: Quantitative high-throughput screening tests each substance at several concentrations.)

Where [1] appears, read: measured here: cell number channel AC50, cells fed with added oleic acid.
Where [2] appears, read: measured here: lipid fluorescence (Fed channel) AC50, cells fed with added oleic acid.

This is one part of the list. Shown are side measurements of this screen, not its main read-out; they come without a call. The list favours compounds with an active or inconclusive main result. Words in brackets tell the shape of the fitted curve; partial curves, single points and poor fits give uncertain potencies.

In general, AC50 refers to the concentration at which the activity in the assay is half-maximal. Low values mean activity at low concentration, high ones activity only at high concentration. With `OCCN(Cc1ccccc1)CC1CC=CCC1` (centres undefined), the half-maximal activity concentration (AC50) under setting [1] is 0.146 µM [falling, full curve].
On to `COc1ccc(C(CNC(=O)c2cc3ccccc3o2)N2CCCC2)cc1` (centres undefined), for which the cell number change amounted to 4.15%. For the same compound, the half-maximal activity concentration (AC50) under setting [2] is 0.116 µM [falling, full curve, poor fit].
Take `COc1ccccc1NC(=O)CSc1nnnn1-c1ccc(F)cc1`: the cell number change was -16.5%. Moreover, the AC50 under setting [2] is 0.411 µM [rising, single point].
As to `Cc1ccc(NC(=O)CC2CCCC2)c(Br)c1`, the cell number change is -10.3%.
For the compound `COc1ccc(OCCn2c(=O)sc3ccccc32)cc1`, the cell number change was found to be 1.83%. Moreover, the concentration at half-maximal activity (AC50) under setting [2] was 0.13 µM [rising, full curve, poor fit].
As for `CCCCNC(=O)c1cn(C)c2ccc(S(=O)(=O)N3CC(C)CC(C)C3)cc2c1=O` (centres undefined), the cell number change is -9.16%. For the same compound, the AC50 under setting [2] is 0.58 µM [falling, single point].
For `CCn1cc(C(=O)OCC(=O)Nc2ccc(S(=O)(=O)N3CCCC3)cc2)c(=O)c2ccc(C)nc21`, the cell number change amounted to 30.8%. The AC50 under setting [1] is 3.66 µM [rising, full curve].
Turning to `O=[N+]([O-])c1cccc2cn[nH]c12`, the cell number change is -1.61%. Further, the AC50 under setting [2] was 29.1 µM [rising, single point].
On to `O=C(NCCS(=O)(=O)c1ccc(Cl)cc1)c1ccc(F)cc1`, for which the cell number change was determined as 36.1%. Under setting [1], the AC50 was 16.4 µM [rising, single point]. The AC50 under setting [2] is 0.58 µM [falling, single point].
Take `O=C(O)c1cc(Cl)c(Cl)cc1C(=O)N1CCCC1`: the cell number change is -201%. The AC50 under setting [1] is 25.9 µM [falling, partial curve]. The AC50 under setting [2] was 29.1 µM [falling, single point].
As to `Cc1ccc(S(=O)(=O)N2C(=O)C(c3ccccc3)SC2=Nc2ccccc2)cc1` (centres undefined), the cell number change was -69.7%. Moreover, the AC50 under setting [1] was 25.9 µM [falling, single point]. Further, under setting [2], the AC50 was 0.731 µM [falling, full curve, poor fit].
Consider `COc1cc(OC)cc(C(=O)OCC(=O)Nc2ccc(F)cc2F)c1`, for which the cell number change turned out to be 55.2%. For the same compound, the AC50 under setting [1] is 16.4 µM [rising, single point]. The AC50 under setting [2] is 29.1 µM [rising, single point].
Consider `O=C(N=Nc1c(O)[nH]c2ccccc12)c1ccc2c(c1)OCO2`, for which the cell number change was 11.9%. Also, under setting [1], the AC50 was 0.103 µM [rising, full curve, poor fit].
With `Cn1ccnc1Sc1cc(Cl)ccc1[N+](=O)[O-]`, the cell number change is 6.55%.
Same read-out and setting: the result for `C#CC(CC)(CC)NC(=O)c1nn(-c2ccccc2Cl)c(C)cc1=O` reads 10.5%.
In the case of `COc1ccc2o/c(=N\O)c(C(=O)Nc3ccc(C)cc3)cc2c1`, the cell number change was -50.1%. Moreover, the AC50 under setting [2] was 23.1 µM [falling, partial curve].
Consider `CCCOc1cc(CN2CCCCC2)cc(C(C)=O)c1`, for which the cell number change was 5.16%. In addition, the AC50 under setting [2] was 23.1 µM [falling, single point].
